Measured values as given in publication PMC12637224.
These are yes or no findings as the source states them, for the method shown. For some of these results: In cells and extracts the contact can be indirect. Some entries that bind do so weakly or less than the wild type. For some of these results: Tags and fused reporters may be left off the sequences shown.

Sequences of proteins named here, by UniProt entry; tags and fusion partners are left off. A change or cut given only in a name is not applied to a line headed by its entry. A line that says so, or that is headed by a name, gives the form on record, which may keep a tag or linker.
UniProt P20701: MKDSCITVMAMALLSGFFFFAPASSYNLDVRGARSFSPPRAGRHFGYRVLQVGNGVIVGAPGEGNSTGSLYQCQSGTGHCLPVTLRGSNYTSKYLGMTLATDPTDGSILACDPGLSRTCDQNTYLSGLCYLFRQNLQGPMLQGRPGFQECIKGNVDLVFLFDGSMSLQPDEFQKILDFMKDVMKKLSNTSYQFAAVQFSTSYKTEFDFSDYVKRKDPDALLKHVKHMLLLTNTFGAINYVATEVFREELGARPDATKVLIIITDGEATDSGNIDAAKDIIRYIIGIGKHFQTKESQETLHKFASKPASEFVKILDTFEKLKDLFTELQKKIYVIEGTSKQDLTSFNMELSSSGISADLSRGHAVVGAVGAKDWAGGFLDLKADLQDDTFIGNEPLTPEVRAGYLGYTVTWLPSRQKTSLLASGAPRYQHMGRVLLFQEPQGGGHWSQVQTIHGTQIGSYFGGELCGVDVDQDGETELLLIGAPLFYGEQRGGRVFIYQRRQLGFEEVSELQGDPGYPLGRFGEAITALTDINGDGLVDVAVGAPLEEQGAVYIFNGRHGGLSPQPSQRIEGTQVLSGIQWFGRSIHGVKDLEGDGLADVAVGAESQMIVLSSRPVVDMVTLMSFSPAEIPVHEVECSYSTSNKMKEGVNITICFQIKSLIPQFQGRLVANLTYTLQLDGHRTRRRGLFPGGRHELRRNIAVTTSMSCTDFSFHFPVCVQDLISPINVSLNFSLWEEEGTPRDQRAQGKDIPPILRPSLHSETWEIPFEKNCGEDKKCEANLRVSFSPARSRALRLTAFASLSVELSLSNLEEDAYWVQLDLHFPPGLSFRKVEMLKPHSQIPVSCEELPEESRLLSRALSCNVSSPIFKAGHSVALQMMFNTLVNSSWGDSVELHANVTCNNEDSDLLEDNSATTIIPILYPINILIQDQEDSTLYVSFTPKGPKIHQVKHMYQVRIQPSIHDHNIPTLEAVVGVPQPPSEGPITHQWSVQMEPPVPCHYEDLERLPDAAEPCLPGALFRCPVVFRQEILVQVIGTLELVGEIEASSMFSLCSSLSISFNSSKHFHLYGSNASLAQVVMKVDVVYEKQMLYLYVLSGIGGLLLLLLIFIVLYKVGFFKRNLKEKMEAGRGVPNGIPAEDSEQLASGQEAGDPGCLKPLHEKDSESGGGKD
GST-β2-CT (GST-fused human integrin β2 cytoplasmic tail) (P05107, form named): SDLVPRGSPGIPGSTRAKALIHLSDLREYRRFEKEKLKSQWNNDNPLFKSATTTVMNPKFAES
GST-β2-KQDS (GST-fused human β2 cytoplasmic tail with NND replaced with KQDS) (P05107, form named): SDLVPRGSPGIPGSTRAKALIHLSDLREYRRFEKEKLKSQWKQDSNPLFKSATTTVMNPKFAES
UniProt P26011: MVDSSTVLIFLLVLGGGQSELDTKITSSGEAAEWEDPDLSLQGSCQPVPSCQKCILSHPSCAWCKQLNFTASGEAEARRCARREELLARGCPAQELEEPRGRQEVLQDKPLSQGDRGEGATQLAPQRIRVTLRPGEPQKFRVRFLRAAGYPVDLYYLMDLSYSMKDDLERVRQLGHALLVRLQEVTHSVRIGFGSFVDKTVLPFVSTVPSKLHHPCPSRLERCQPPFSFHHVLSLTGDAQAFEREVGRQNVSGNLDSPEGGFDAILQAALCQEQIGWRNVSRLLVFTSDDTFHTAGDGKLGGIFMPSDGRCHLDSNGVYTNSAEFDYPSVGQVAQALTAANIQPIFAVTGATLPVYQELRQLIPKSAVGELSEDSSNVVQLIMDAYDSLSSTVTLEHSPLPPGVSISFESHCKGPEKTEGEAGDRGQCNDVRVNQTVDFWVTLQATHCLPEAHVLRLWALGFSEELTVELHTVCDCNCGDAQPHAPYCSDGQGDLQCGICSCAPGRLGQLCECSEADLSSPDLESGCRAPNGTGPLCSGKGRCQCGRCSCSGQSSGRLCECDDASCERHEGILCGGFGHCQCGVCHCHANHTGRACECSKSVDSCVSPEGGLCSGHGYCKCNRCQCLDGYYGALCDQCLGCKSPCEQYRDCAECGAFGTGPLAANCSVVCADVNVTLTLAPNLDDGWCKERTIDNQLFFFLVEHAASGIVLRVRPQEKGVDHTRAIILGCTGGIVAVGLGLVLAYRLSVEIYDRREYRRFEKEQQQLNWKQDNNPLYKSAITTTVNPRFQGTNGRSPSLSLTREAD
UniProt P43406: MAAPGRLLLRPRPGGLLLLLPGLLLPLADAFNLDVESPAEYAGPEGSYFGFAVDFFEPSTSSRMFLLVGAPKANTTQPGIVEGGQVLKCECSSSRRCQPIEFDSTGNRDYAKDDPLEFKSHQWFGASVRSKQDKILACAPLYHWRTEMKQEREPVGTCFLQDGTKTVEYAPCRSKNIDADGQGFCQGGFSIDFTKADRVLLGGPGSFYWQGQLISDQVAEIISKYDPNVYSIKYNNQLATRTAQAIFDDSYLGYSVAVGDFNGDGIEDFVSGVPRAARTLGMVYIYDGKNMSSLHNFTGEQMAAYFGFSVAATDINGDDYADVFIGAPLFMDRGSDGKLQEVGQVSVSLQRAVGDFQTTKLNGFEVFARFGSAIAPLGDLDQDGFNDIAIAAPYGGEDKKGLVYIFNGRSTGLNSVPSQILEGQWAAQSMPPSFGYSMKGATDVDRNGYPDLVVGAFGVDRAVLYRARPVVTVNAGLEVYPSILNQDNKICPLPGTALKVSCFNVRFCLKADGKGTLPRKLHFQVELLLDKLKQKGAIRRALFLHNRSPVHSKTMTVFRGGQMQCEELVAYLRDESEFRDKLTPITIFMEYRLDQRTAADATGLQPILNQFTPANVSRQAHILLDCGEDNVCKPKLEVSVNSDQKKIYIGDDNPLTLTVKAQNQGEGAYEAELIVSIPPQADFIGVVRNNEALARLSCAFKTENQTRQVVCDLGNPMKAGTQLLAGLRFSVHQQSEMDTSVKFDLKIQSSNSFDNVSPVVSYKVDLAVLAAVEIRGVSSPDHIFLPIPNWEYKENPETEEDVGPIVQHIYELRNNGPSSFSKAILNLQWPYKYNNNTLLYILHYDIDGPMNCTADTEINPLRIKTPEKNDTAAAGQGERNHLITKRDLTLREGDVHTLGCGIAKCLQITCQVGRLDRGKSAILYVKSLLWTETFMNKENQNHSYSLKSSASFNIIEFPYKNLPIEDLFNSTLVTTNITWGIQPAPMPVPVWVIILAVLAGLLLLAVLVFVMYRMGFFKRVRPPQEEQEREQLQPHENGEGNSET
UniProt O54890: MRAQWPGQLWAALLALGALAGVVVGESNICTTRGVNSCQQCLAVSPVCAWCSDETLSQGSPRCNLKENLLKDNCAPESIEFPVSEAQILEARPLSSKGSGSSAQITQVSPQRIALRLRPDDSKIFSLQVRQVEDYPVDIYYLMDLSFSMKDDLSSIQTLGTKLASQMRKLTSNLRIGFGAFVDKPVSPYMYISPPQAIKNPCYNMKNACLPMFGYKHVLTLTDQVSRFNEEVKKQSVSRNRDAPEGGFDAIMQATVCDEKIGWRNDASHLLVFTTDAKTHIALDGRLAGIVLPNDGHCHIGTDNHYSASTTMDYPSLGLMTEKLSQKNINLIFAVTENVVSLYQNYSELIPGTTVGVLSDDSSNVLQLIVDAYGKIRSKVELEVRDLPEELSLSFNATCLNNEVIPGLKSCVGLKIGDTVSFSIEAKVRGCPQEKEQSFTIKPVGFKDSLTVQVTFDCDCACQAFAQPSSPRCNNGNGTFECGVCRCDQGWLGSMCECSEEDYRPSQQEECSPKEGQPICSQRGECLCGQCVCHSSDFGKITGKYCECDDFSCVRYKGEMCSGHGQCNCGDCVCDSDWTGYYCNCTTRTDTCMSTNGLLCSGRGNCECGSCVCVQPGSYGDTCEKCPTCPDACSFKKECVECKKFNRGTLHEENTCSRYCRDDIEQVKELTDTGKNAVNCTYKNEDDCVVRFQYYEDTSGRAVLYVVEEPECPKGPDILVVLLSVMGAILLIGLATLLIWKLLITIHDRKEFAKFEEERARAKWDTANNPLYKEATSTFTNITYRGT
GST-β3-CT (GST-fused human integrin β3 cytoplasmic tail) (P05106, form named): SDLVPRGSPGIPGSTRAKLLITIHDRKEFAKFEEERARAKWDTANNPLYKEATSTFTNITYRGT
UniProt P26039: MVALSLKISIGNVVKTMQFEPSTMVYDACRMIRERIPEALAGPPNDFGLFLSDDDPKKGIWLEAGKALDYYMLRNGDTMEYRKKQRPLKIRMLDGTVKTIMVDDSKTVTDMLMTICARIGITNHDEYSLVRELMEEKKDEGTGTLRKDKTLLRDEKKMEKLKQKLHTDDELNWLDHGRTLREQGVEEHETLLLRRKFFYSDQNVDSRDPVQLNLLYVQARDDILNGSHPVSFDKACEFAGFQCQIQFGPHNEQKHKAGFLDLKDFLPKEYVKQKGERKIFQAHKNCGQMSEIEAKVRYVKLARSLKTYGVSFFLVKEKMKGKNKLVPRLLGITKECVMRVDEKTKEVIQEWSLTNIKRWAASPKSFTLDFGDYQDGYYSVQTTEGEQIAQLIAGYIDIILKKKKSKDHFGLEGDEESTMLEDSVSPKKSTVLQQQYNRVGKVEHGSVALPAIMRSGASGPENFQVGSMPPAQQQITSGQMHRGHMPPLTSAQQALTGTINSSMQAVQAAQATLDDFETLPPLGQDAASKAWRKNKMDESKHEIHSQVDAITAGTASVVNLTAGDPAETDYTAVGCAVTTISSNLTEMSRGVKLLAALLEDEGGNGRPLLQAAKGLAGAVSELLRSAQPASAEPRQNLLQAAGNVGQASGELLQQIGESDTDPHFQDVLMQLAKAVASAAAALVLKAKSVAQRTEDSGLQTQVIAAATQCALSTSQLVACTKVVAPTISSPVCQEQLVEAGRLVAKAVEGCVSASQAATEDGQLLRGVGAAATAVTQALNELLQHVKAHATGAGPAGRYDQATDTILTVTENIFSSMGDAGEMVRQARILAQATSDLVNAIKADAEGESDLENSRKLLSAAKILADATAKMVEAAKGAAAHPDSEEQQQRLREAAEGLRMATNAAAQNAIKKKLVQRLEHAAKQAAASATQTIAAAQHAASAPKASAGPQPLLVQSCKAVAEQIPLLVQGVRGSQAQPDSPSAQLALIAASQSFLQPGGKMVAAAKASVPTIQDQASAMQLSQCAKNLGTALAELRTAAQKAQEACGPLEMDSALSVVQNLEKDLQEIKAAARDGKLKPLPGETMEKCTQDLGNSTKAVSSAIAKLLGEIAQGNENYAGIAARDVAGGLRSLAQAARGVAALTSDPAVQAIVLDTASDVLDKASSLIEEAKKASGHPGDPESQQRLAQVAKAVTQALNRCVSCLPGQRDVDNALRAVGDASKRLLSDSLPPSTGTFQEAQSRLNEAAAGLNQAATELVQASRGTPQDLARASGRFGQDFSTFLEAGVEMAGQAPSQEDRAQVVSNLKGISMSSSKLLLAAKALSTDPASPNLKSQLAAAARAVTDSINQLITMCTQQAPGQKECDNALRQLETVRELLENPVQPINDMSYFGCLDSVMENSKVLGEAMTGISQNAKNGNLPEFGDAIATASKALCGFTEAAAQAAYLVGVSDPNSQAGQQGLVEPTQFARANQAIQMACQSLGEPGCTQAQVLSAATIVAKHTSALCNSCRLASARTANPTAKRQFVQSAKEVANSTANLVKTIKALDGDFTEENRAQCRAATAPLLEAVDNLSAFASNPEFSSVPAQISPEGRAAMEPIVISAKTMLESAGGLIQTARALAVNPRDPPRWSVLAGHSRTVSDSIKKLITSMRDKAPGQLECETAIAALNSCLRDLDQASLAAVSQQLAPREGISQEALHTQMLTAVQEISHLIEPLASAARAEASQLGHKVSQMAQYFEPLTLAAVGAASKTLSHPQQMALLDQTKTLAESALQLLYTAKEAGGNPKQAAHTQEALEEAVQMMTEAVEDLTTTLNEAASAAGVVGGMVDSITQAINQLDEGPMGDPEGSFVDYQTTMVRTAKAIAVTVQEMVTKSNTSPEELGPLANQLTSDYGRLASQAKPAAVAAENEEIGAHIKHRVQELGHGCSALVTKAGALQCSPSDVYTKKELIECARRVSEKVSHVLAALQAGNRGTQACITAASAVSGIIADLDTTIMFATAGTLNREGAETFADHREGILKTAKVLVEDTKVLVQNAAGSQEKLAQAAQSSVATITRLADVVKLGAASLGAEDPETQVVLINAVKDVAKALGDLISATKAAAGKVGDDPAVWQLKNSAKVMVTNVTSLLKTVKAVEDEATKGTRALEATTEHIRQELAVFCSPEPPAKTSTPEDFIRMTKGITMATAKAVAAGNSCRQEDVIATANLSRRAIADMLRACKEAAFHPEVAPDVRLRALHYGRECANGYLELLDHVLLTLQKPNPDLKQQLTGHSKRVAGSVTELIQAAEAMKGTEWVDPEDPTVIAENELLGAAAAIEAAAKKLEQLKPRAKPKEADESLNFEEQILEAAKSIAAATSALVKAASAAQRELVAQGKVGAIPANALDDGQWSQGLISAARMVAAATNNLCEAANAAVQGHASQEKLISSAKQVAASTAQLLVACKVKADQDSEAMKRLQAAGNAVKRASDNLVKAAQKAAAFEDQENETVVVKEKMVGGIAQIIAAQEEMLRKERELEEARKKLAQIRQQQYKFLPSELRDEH

What was measured:
[1] = target: intact LFA1 (αL/β2) expressed in BAF/LFA1 cells (human) (UniProt P20701+P05107); assay: single-molecule particle tracking by total internal reflection microscopy in live cells; BAF/LFA1 cells expressing HT-talin1 and intact, chimeric or mutant LFA1, on hICAM1-coated dishes, with PMA (without PMA for αL-ΔGFFKR cells); binding frequency and binding time from trajectories >0.2 s
[2] = target: αL/β2-KQDS (NND of the β2 WN linker replaced with KQDS of β7) (human) (UniProt P20701+P05107); assay: as above
αL/β2-N749A (human) = αL/β2-N749A (human) (UniProt P20701+P05107); assay: as above
[3] = target: LFA1 (αL/β2 integrin), endogenous on mouse primary T cells (mouse (endogenous in mouse T cells)) (UniProt P24063+P11835); assay: single-molecule particle tracking by total internal reflection microscopy in live cells; primary T cells from HT-talin1 knock-in mice (naive; activated with retinoic acid; Th2-skewed), HT-talin1 labelled with HT SaraFluor 650T Ligand, cells on dishes coated with 10 μg/ml ICAM1, MAdCAM1 or PECAM1 with 100 ng/ml PMA; poly-L-lysine as ligand-free control; binding frequency, binding time and koff from trajectories >0.2 s
[4] = target: α4/β7 integrin, endogenous on mouse primary T cells (mouse (endogenous in mouse T cells)) (UniProt Q00651+P26011); assay: as above
[5] = target: αV/β3 integrin, endogenous on mouse primary T cells (mouse (endogenous in mouse T cells)) (UniProt P43406+O54890); assay: as above
[6] = target: GST-β2-CT (GST-fused human integrin β2 cytoplasmic tail) (human) (UniProt P05107); assay: pull-down; GST-integrin-CT preimmobilized on Glutathione Sepharose beads, mixed with lysates of 293T cells expressing myc-tagged talin1 FERM, 1 h at 4 °C; washed with 30 mM Tris–HCl, 150 mM NaCl, 1 mM EDTA, 0.15% Triton X-100, pH 7.5; Western blotting; only the target purified
[7] = target: GST-β2-KQDS (GST-fused human β2 cytoplasmic tail with NND replaced with KQDS) (human) (UniProt P05107); assay: as above
[8] = target: GST-β3-CT (GST-fused human integrin β3 cytoplasmic tail) (human) (UniProt P05106); assay: as above
[9] = target: T1, GST-β7-CT (GST-fused human integrin β7 cytoplasmic tail) (human) (UniProt P26010); assay: as above
T1 sequence: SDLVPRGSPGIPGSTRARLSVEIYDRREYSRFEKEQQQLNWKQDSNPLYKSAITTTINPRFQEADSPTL

Measured: binding

HaloTag-fused talin1 (HT-talin1) expressed in BAF/LFA1 cells (from UniProt P26039 1-2541)
binds: [1] | [2] | αL/β2-N749A (human)

HaloTag-fused talin1 (HT-talin1), endogenous knock-in in mouse primary T cells (from UniProt P26039 1-2541)
binds: [3] | [4] | [5]

myc-tagged talin1 FERM domain (from UniProt P26039 86-403) (domain or fragment)
binds: [6] | [7] | [8] | [9]
